Results as given in US20180368393A1, “PRE- AND POST-STORAGE STRESS RESPONSE CONDITIONING” (CPSI HOLDINGS LLC, priority 2017, published 2018).
Some results were stated once for a whole list of compounds, not compound by compound.

Test system: human endothelial cells
Assay: Human endothelial cell monolayer survival and repopulation following cryopreservation (Calcein-AM assay)
Format: cell-based
Settings: P/P conditioning with NAC, salubrinal or resveratrol; U10G10
Description: A series of cryopreservation experiments was conducted on human endothelial and smooth muscle cell suspensions and monolayers to assess the performance of four (4) commercially available cryopreservation solutions: DP6, VS55, VS83, and M22, as well as nine (9) additional solutions: […] Eurocollins (EC) solution was included as a negative control, i.e., no cryoprotective agent (CPA) control, while media+10% DMSO ([…]) is a typical solution (10% DMSO) used in standard controlled rate cryopreservation protocols known to the skilled individual. Unisol is representative of the class of intracellular-like or intracellular-type solutions/media, whereas EC solution and culture media are representative of the class of extracellular-like or extracellular-type solutions/media. […] Following thawing, samples were diluted in culture media, placed into culture and assessed for viability at 1 day (24 hours) post-thaw and following seven (7) days of recovery using the Calcein-AM assay. […] As with the viability studies, cell survival and repopulation were assessed using Calcein-AM assays and analyzed using fluorescent microscopy (Zeiss). Survival was determined at 24 hours post-thaw to allow for the manifestation of any delayed onset cell death pathways to be executed. […]

SMILES: O=C(/C=C/c1ccccc1)NC(NC(=S)Nc1cccc2cccnc12)C(Cl)(Cl)Cl (centres unmarked) [salubrinal]
- survival: > 50%

SMILES: Oc1ccc(C=Cc2cc(O)cc(O)c2)cc1 [resveratrol]
- survival: > 50%
